According to US20020091086A1, “Peptides that block viral infectivity and methods of use thereof” (priority 1999, published 2002):
Some of these results come from one statement about several compounds together. Peptide text beside a SMILES is read from it.

How the values were obtained:
HIV-2 = HIV-2 infectivity assay in H9 cells, RT activity in supernatant; format: cell-based; settings: first five experiments (Tables 2-6)
SIV = SIV infectivity assay in H9 cells, RT activity in supernatant; format: cell-based; settings: first five experiments (Tables 2-6)

`NCC(=O)N1CCC[C@H]1C(=O)NCC(N)=O` [GPG-NH2, glycyl-prolyl-glycine amide] (H-Gly-Pro-Gly-NH2) was tested, and the “concentrations that inhibit HIV-2 infection” value (HIV-2) was no less than 5 µM and the “concentrations that inhibit SIV infection” value (SIV) was no less than 5 µM.
